Test results taken from paper PMC8900821.
These are yes or no findings as the source states them, for the method shown.

The chains behind the UniProt entries cited, without tags or fusion partners. Residues count along the entry.
UniProt P0DQD2, residues 36-392: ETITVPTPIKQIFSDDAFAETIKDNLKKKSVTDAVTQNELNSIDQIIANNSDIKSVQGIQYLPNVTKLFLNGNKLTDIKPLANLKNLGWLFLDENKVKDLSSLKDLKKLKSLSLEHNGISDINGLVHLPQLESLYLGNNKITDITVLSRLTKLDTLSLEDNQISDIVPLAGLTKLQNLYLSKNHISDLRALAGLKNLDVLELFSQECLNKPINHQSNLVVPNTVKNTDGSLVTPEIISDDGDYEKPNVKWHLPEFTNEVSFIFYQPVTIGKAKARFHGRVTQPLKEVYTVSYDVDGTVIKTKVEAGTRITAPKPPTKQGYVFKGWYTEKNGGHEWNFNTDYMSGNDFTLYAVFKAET

Molecular target: wild-type InlB392 (Listeria monocytogenes) (UniProt P0DQD2)
Test: crystal structure; packing of InlB392 alone in the crystals: three crystal forms, five crystallographically independent molecules; protein at 10 mg/ml in 10 mM Tris pH 8.0, 20 mM NaCl; both purified

Q: “wild-type InlB392 (from UniProt P0DQD2 36-392) (domain or fragment)” was tested. Which binding did it give?
A: Its binding is “no binding”.
